Laboratory results: PubChem BioAssay AID330 (DTP/NCI, 2004)
The list does not hold the whole screen: it gathers tests that were run many times, whatever their T/C, doses with no T/C, and many T/C values between a quarter and a half above the control. Further doses and runs are listed elsewhere. T/C: endpoint of the treated group in % of that of the vehicle group. Some doses have a count of surviving animals in place of a T/C: the source files T/C as zero there, which appears to mark a toxic dose or a test without result, not a measured value. Some doses without a T/C left all or most animals alive at the check, yet need not have been tolerated: the source hardly ever lists a survival T/C far under the control, and the zero likely stands for such cases as well. Counts of survivors are from the toxicity check (mostly the fifth day) where no day follows; animals may have died later. Schedule codes are those of the source, taken here to give the interval after Q, in days (D) or hours (H), and the number of doses after X. Where survival is the endpoint, this PubChem deposit counts one and a half times the control or more as active, and values a quarter to a half above the control carry no call in these data; other NCI protocols may use other cut-offs. Some entries hold several experiments; the results are listed from low to high.

System: P388 leukemia ip, CD2F1 mice, survival T/C
Assay: NCI In Vivo Anticancer Drug Screen. Data for tumor model P388 Leukemia (intraperitoneal) in CD2F1 (CDF1) mice
Details: T/C endpoint: median survival time, higher T/C = longer survival
[1] = dose: 200.0 mg/kg/injection, schedule: Q01DX009 (ip), vehicle: other
[2] = dose: 200.0 mg/kg/injection, schedule: Q01DX009 (ip), vehicle: saline with Tween-80
[3] = dose: 100.0 mg/kg/injection, schedule: Q01DX005 (ip), vehicle: Klucel (hydroxypropylcellulose) (HPC)
[4] = dose: 50.0 mg/kg/injection, schedule: Q01DX009 (ip), vehicle: saline with Tween-80
[5] = dose: 100.0 mg/kg/injection, schedule: Q01DX009 (ip), vehicle: saline with Tween-80
[6] = dose: 200.0 mg/kg/injection, schedule: Q01DX009 (ip), vehicle: Klucel (hydroxypropylcellulose) (HPC)
[7] = dose: 240.0 mg/kg/injection, schedule: Q01DX005 (ip), vehicle: saline with Tween-80
[8] = dose: 12.5 mg/kg/injection, schedule: Q01DX009 (ip), vehicle: saline with Tween-80
[9] = dose: 25.0 mg/kg/injection, schedule: Q01DX009 (ip), vehicle: saline with Tween-80
[10] = dose: 50.0 mg/kg/injection, schedule: Q01DX009 (ip), vehicle: saline
[11] = dose: 100.0 mg/kg/injection, schedule: Q01DX005 (ip), vehicle: saline
[12] = dose: 10.0 mg/kg/injection, schedule: Q01DX009 (ip), vehicle: saline
[13] = dose: 200.0 mg/kg/injection, schedule: Q01DX009 (ip), vehicle: saline
[14] = dose: 50.0 mg/kg/injection, schedule: Q01DX005 (ip), vehicle: Klucel (hydroxypropylcellulose) (HPC)
[15] = dose: 200.0 mg/kg/injection, schedule: Q01DX005 (ip), vehicle: Klucel (hydroxypropylcellulose) (HPC)

For `CCC12C=CCN3CC[C@@]4(c5cc([C@@]6(C(=O)OC)C[C@@H]7CN(CCc8c6[nH]c6ccccc86)C[C@](O)(CC)C7)c(OC)cc5N(C)[C@H]4[C@@](O)(C(=O)OC)[C@@H]1OC(=O)CCCCCCCCCCCN1C(=O)C=CC1=O)[C@H]32` (stereo not given in full), the T/C (dose: 6.25 mg/kg/injection, schedule: Q01DX001 (ip), vehicle: saline) was 134 % of control, the T/C (dose: 12.5 mg/kg/injection, schedule: Q01DX001 (ip), vehicle: other) was 134 % of control and the T/C (dose: 12.5 mg/kg/injection, schedule: Q01DX001 (ip), vehicle: saline) was 131 % of control. For the same compound, the survivor count (dose: 50.0 mg/kg/injection, schedule: Q01DX001 (ip), vehicle: other) was 1 of 6, the survivor count (dose: 50.0 mg/kg/injection, schedule: Q01DX001 (ip), vehicle: saline with Tween-80) was 0 of 6 and the survivor count (dose: 100.0 mg/kg/injection, schedule: Q01DX001 (ip), vehicle: saline with Tween-80) was 0 of 6.

`CC1=C(C#N)C(C)(C)C(C#N)=C(C)N1C` was tested, and the survivor count [1] was 0 of 6, the survivor count [2] was 0 of 5 and the survivor count (dose: 400.0 mg/kg/injection, schedule: Q01DX009 (ip), vehicle: other) was 0 of 6.

`COC(=O)C(C)NC(=O)C(CCSC)NC(=O)OC(C)(C)C` (stereo not given) was tested, and the survivor count [3] was 3 of 5.

With `COc1ccc2[nH]c3c(c2c1)CCNC3CC(C)CCC=C(C)C` (stereo not given) the T/C (dose: 50.0 mg/kg/injection, schedule: Q01DX009 (ip), vehicle: Klucel (hydroxypropylcellulose) (HPC)) was 135 % of control, the survivor count [4] was 6 of 6 and the T/C (dose: 100.0 mg/kg/injection, schedule: Q01DX009 (ip), vehicle: Klucel (hydroxypropylcellulose) (HPC)) was 138 % of control. The survivor count [5] was 6 of 6 and the survivor count [6] was 1 of 6.

In the case of `Cc1[nH]c2ccc(N(C)C)cc2c(=O)c1Cc1c(C)[nH]c2ccc(N(C)C)cc2c1=O`, the survivor count [7] is reported as 6 of 6.

For `CC(/C=C/c1ccc(O)cc1)=N\NC(N)=S`, the survivor count (dose: 60.0 mg/kg/injection, schedule: Q01DX005 (ip), vehicle: Klucel (hydroxypropylcellulose) (HPC)) was 0 of 6, the survivor count (dose: 120.0 mg/kg/injection, schedule: Q01DX005 (ip), vehicle: Klucel (hydroxypropylcellulose) (HPC)) was 0 of 6 and the survivor count (dose: 240.0 mg/kg/injection, schedule: Q01DX005 (ip), vehicle: Klucel (hydroxypropylcellulose) (HPC)) was 0 of 6.

`O=C(CNC(=O)Nc1ccc(Cl)c(Cl)c1)N/N=C/c1ccccc1F` was tested, and the survivor count (dose: 30.0 mg/kg/injection, schedule: Q01DX005 (ip), vehicle: saline with Tween-80) was 6 of 6, the survivor count (dose: 60.0 mg/kg/injection, schedule: Q01DX005 (ip), vehicle: saline with Tween-80) was 6 of 6 and the survivor count (dose: 120.0 mg/kg/injection, schedule: Q01DX005 (ip), vehicle: saline with Tween-80) was 6 of 6. The survivor count [7] was 6 of 6.

For `Nc1cc2c(cn1)[nH]c1ccccc12`, the survivor count [1] was 1 of 4 and the survivor count [7] was 0 of 6.

In the case of `Nc1nc(=S)c2ncn(C3CC(O)C(CO)O3)c2[nH]1` (stereo not given), the T/C (dose: 1.25 mg/kg/injection, schedule: Q01DX009 (ip), vehicle: Klucel (hydroxypropylcellulose) (HPC)) is reported as 127 % of control, the T/C (dose: 2.5 mg/kg/injection, schedule: Q01DX009 (ip), vehicle: Klucel (hydroxypropylcellulose) (HPC)) is reported as 136 % of control and the T/C (dose: 5.0 mg/kg/injection, schedule: Q01DX009 (ip), vehicle: Klucel (hydroxypropylcellulose) (HPC)) is reported as 136 % of control. The T/C (dose: 6.25 mg/kg/injection, schedule: Q01DX009 (ip), vehicle: saline sonified) was 136 % of control, the T/C (dose: 12.5 mg/kg/injection, schedule: Q01DX009 (ip), vehicle: saline sonified) was 145 % of control and the T/C [8] was 137 % of control. For the same compound, the T/C (dose: 25.0 mg/kg/injection, schedule: Q01DX009 (ip), vehicle: Klucel (hydroxypropylcellulose) (HPC)) was 140 % of control, the T/C [9] was 137 % of control and the T/C (dose: 50.0 mg/kg/injection, schedule: Q01DX005 (ip), vehicle: saline) was 127 % of control. For the same compound, the T/C [10] was 133 % of control, the T/C [11] was 125 and 143 % of control and the survivor count [6] was 5 of 6.

In the case of `CCn1c(=S)[nH]c2sc3c(c2c1=O)CCCC3`, the survivor count [7] is reported as 3 of 6.

`CC1CN1P(=O)(N1CCCC1)N1CC1C` (stereo not given) was tested, and the T/C [12] was 130 % of control, the T/C (dose: 15.0 mg/kg/injection, schedule: Q01DX009 (ip), vehicle: saline) was 143 % of control and the T/C (dose: 44.0 mg/kg/injection, schedule: Q04DX003 (ip), vehicle: saline) was 137 % of control. The T/C [10] was 131 % of control, the T/C (dose: 50.0 mg/kg/injection, schedule: Q04DX003 (ip), vehicle: saline) was 145 % of control and the survivor count (dose: 150.0 mg/kg/injection, schedule: Q04DX003 (ip), vehicle: saline) was 6 of 6.

With `Cn1c2ccccc2c(=O)c2c(O)cc3c(c21)CC(C1(C)CO1)O3` (stereo not given) the T/C (dose: 32.0 mg/kg/injection, schedule: Q01DX005 (ip), vehicle: Klucel (hydroxypropylcellulose) (HPC)) was 126 % of control.

`S=c1s/c(=C\c2ccccc2)c2nc3ccccc3n12` was tested, and the survivor count [13] was 6 of 6.

In the case of `Cc1cc(C)c2c(=O)n(-c3ccc(Br)cc3)c(=S)n(-c3ccc(Br)cc3)c2n1`, the survivor count (dose: 100.0 mg/kg/injection, schedule: Q01DX005 (ip), vehicle: saline with Tween-80) is reported as 6 of 6 and the survivor count (dose: 200.0 mg/kg/injection, schedule: Q01DX005 (ip), vehicle: saline with Tween-80) is reported as 6 of 6.

With `c1coc(CNC2=NCCCCC2)c1` the survivor count (dose: 100.0 mg/kg/injection, schedule: Q01DX009 (ip), vehicle: saline) was 0 of 6, the survivor count [13] was 0 of 6 and the survivor count (dose: 400.0 mg/kg/injection, schedule: Q01DX009 (ip), vehicle: saline) was 0 of 6.

With `COc1ccc(C2=CC3CCC(C2)N3C)cc1` (stereo not given) the survivor count [14] was 3 of 6, the survivor count [3] was 0 of 6 and the survivor count [11] was 0 of 6. The survivor count [15] was 0 of 6.

With `Nc1ccc(-c2ccc(N)c(Cl)c2)cc1Cl` the survivor count (dose: 400.0 mg/kg/injection, schedule: Q01DX009 (ip), vehicle: saline with Tween-80) was 1 of 6.

In the case of `CN1CCN=C1c1ccc(NC(=O)c2ccc(C(=O)Nc3ccc(C4=NCCN4C)cc3)c(N)c2)cc1`, the T/C (dose: 2.0 mg/kg/injection, schedule: Q01DX009 (ip), vehicle: saline) is reported as 133 % of control, the survivor count (dose: 5.0 mg/kg/injection, schedule: Q01DX009 (ip), vehicle: saline) is reported as 0 of 6 and the survivor count [12] is reported as 2 of 6. The survivor count (dose: 20.0 mg/kg/injection, schedule: Q01DX009 (ip), vehicle: saline) was 0 of 6, the survivor count (dose: 100.0 mg/kg/injection, schedule: Q04DX003 (ip), vehicle: saline) was 0 of 6 and the survivor count (dose: 200.0 mg/kg/injection, schedule: Q04DX003 (ip), vehicle: saline) was 0 of 6. For the same compound, the survivor count (dose: 400.0 mg/kg/injection, schedule: Q04DX003 (ip), vehicle: saline) was 0 of 6.

For `CC/C(C)=N\NC(=S)SC`, the survivor count [8] was 2 of 6, the survivor count [9] was 2 of 6 and the survivor count [4] was 0 of 6. The survivor count [5] was 0 of 6 and the survivor count [2] was 0 of 6.

`COc1cc2cnc3c4cc(OC)c(OC)cc4c(O)cc3c2cc1OC` was tested, and the survivor count [14] was 0 of 5, the survivor count [3] was 3 of 5 and the survivor count [15] was 0 of 5.

With `COc1ccc2c(=O)cc(-c3ccccc3)[nH]c2c1` the survivor count (dose: 150.0 mg/kg/injection, schedule: Q01DX009 (ip), vehicle: saline) was 4 of 6.

With `CCN(CC)CCCC(C)NC(=O)c1ccc2c(c1O)C(=O)c1ccccc1C2=O` (stereo not given) the T/C (dose: 5.0 mg/kg/injection, schedule: Q01DX009 (ip), vehicle: water) was 125 % of control, the survivor count (dose: 40.0 mg/kg/injection, schedule: Q01DX009 (ip), vehicle: water) was 4 of 6 and the survivor count (dose: 80.0 mg/kg/injection, schedule: Q01DX009 (ip), vehicle: water) was 0 of 6.
